The target of experiment [1] is perilipin-1 and/or fragments thereof in and on mouse adipocytes (primary mouse adipocytes, differentiated 3T3-L1 cells) (mouse) (UniProt Q8CGN5). Kind of experiment: flow cytometry on freshly isolated mouse adipocytes (FIGS. 10 and 11).
Experiment [2] has the same target. Kind of experiment: flow cytometry on freshly isolated mouse adipocytes, 1 ug/ml.
Experiment [3] has the same target. Kind of experiment: immunogold scanning electron microscopy on fixed differentiated adipocytes.

By UniProt entry, the sequences of proteins in these tests, tags left out.
UniProt Q8CGN5: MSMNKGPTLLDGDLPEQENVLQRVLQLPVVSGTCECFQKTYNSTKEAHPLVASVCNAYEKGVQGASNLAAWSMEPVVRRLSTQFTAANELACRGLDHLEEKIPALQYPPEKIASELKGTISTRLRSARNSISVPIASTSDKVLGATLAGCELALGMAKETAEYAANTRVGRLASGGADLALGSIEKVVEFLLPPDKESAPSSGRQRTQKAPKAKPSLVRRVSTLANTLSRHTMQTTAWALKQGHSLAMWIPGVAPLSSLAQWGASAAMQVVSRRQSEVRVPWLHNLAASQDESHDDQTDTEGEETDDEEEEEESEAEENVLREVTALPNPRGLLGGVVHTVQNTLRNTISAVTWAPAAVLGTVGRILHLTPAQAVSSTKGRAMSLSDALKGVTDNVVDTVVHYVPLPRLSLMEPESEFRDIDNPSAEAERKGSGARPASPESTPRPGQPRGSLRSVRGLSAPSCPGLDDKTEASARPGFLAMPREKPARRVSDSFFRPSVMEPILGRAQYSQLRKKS

These are yes or no findings as the source states them, for the method shown. Some results given as binding are weak or reduced against the parent protein; the word gives no strength.

B1: Antibody No. 18 (antibody, V domains shown)
VH: EVQLLESGGGLVQPGRSLRLACVASGFTFDDYGMHWVRQAPGKGLEWVAVISYDGSNKYYADSVKGRFTISRDNSKNTLYLQMNSLRAEDTAVYYCAKAYGEGGFDPWGQGTLVTVSS
VL: QSALTQPASVSGSPGQSITISCTGTSSDVGGYNYVSWYQQHPGKAPKLMIYEVSNRPSGVSNRFSGSKSGNTASLTISGLQAEDEADYYCSSYTSSSTTWVFGGGTKVTVL
In the case of B1, the binding result in experiment [1] and in experiment [2] was “binds” in each case.

B2: Antibody No. 21 (antibody, V domains shown)
VH: QVQLVESGGGLVQPGRSLRLSCAASGFTFDDYAMHWVRQAPGKGLEWVSGISWNSGSIGYADSVKGRFTISRDNAKNSLYLQMNSLRAEDTALYYCAKEGEYSYGGGEFDPWGQGTLVTVSS
VL: QSALTQPASVSGSPGQSITISCTGTSSDVGGYNYVSWYQQHPGKAPKLMIYDVSNRPSGVSNRFSGSKSGNTASLTISGLQAEDEADYYCSSYTSSSTWVFGGGTKLTVL
As for B2, the binding entry in experiment [1] and in experiment [2] was “binds” each time.

B3: Antibody No. 11 (antibody, V domains shown)
VH: QVQLVQSGAEVKKPGASVKVSCKASGYTFTSYGISWVRQAPGQGLEWMGWISAYNGNTNYAQKLQGRVTMTTDTSTSTAYMELRSLRSDDTAVYYCASLYCSGGSCYSALDPWGQGTLVTVSS
VL: QSVLTQPPSVSGAPGQRVTISCTGSSSNIGAGYDVHWYQQLPGTAPKLLIYGNSNRPSGVPDRFSGSKSGTSASLAITGLQAEDEADYYCQSYDSSLRYVVFGGGTKVTVL
In the case of B3, the binding entry in experiment [3] is reported as “binds”.

Source of the values: US20220153822A1.
